Literature values in US11306056B2 (Cardioxyl Pharmaceuticals, Inc., priority 2006, dated 2022).

Conditions: cited from earlier work; for donor type under physiological conditions: PA via an oxidative pathway (Zamora et al. 1995)

For [Na+].[Na+].[O-][N+]([O-])=NO [AS, sodium dioxotrinitrate], the “donor type under physiological conditions” value is given as “nitroxyl donor”.
For O=S(=O)(NO)c1ccccc1 [PA, N-hydroxybenzenesulfonamide], the “donor type at high pH” value (high pH (>9), Bonner and Ko 1992) is given as “nitroxyl donor”, the “donation of significant amounts of nitroxyl” value (physiological conditions (Zamora)) is given as “does not in fact donate significant amounts of nitroxyl” and the “donor type under physiological conditions” value is given as “nitric oxide donor”.
